Measured values reported in PubChem BioAssay AID720504 (National Center for Advancing Translational Sciences (NCATS), 2013).
The whole screen tested about 360,000 compounds, of which about 10,000 (2.8%) were called active. This list was built around the results that the source calls inconclusive (neither active nor inactive); the mix of calls is not that of the screen. Calls come from the whole dose curve; as a rule, active = well fitted inhibition curve with a large enough effect; inconclusive = small, poorly fitted or top-dose-only effect; inactive = flat fitted curve, though single readings scatter. Potencies of inconclusive entries are doubtful fits and often do not repeat.

Protein sequences, listed by entry. Tags and fused reporters are not part of them.
UniProt P53350, whole entry, looked up: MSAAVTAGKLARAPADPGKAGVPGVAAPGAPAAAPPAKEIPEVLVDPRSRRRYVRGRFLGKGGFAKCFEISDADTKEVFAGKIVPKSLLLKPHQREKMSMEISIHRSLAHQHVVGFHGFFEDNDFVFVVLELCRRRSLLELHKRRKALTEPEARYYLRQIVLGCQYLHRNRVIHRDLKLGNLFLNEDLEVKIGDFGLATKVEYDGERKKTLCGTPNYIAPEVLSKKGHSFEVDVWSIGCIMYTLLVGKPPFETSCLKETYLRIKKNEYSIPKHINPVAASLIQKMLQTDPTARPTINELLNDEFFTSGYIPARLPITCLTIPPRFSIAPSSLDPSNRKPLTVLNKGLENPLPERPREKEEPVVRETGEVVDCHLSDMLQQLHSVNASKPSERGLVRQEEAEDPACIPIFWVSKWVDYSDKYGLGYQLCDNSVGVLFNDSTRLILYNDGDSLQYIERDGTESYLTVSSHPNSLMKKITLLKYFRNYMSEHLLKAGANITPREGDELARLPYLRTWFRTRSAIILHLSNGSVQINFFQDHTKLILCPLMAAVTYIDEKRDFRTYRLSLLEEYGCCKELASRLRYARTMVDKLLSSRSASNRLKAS

Biological target: Serine/threonine-protein kinase PLK1 (Homo sapiens) (UniProt P53350)
Assay: qHTS for Inhibitors of PLK1-PDB (polo-like kinase 1 - polo-box domain): Primary Screen; note: nearly all actives have a fitted effect of over 65% in size; for max response, negative = inhibition: series mostly up to about 57 µM
Conditions: Plk1 PBD binding of FITC phosphopeptide, fluorescence polarization
% is set by controls: 0 for no effect and ±100 for the full control effect; potency is the fitted concentration of half-maximal effect.

Q: Which max response, negative = inhibition does the source give for O=C(O)c1cccc(-c2ccc(/C=N/NC(=O)C3COc4ccccc4O3)o2)c1 (configuration not stated) here?
A: The max response, negative = inhibition was inactive: -25.1%.

Q: C#CCOCCOCCOCCNc1nc(N2CCN(C(=O)[C@H](CCCCN)n3cc(CC(C)O)nn3)CC2)nc(N2CCN(C(=O)[C@H](CCCCN)n3cc(CC(C)O)nn3)CC2)n1 (some centres not stated) was tested. Which max response, negative = inhibition did it give?
A: Its max response, negative = inhibition is inactive: -2.41%.

Q: CCOc1cc(C2NC(=O)CCC2[N+](=O)[O-])cc(Br)c1OC (configuration not stated) was tested. Which Potency did it give?
A: Its Potency is active: 26.7 µM.

Q: How did the Potency turn out when COc1ccc(/C=N/NC(=O)c2cccnc2)cc1CSc1ccccn1 was run?
A: The Potency was inconclusive: 18.9 µM [inhibitor, partial curve].

Q: COc1ccccc1N1CCN(C2CC(=O)N(c3ccc(Cl)cc3)C2=O)CC1 (configuration not stated) was tested. Which max response, negative = inhibition did it give?
A: Its max response, negative = inhibition is inactive: -3.68%.

Q: For Cc1noc(C)c1COc1ccccc1C(=O)NCCc1ccc(F)cc1, which max response, negative = inhibition is on record?
A: Its max response, negative = inhibition is inactive: -5.42%.

Q: How did the Potency turn out when Cc1ccc(-c2csc(Nc3ccc(S(N)(=O)=O)cc3)n2)o1 was run?
A: Its Potency is inconclusive: 21.2 µM [inhibitor, partial curve].

Q: CCc1c(C)sc(NC(=O)c2ccco2)c1C(=O)N1CCOCC1 was tested. Which Potency did it give?
A: Its Potency is inconclusive: 31.6 µM [inhibitor, partial curve].

Q: How did the Potency turn out when COc1ccc(N=C2S/C(=C\c3ccc(OCC(=O)O)cc3)C(=O)N2CCc2c[nH]c3ccccc23)cc1 was run?
A: The Potency was inconclusive: 11.9 µM [inhibitor, partial curve].

Q: With CN(C)c1ccc(/C=N/NC(=O)c2ccc(Cn3cc(Br)cn3)o2)cc1 as the compound, how does the max response, negative = inhibition read?
A: Its max response, negative = inhibition is inconclusive: -8.45% [inhibitor].

Q: With O=C(CCl)NNc1cccc(Cl)n1 as the compound, how does the Potency read?
A: The Potency was inconclusive: 37.7 µM [inhibitor, single point].

Q: How did the max response, negative = inhibition turn out when O=[N+]([O-])c1ccc(/C=N/NC(=S)Nc2ccccc2C(F)(F)F)o1 was run?
A: Its max response, negative = inhibition is inconclusive: -33% [inhibitor].

Q: Which max response, negative = inhibition does the source give for Fc1ccccc1CN1CCCCCCC1 here?
A: The max response, negative = inhibition was inactive: -1.5%.

Q: For O=C(NC1CCCCC1)/C(=N\O)c1ccccn1, which max response, negative = inhibition is on record?
A: The max response, negative = inhibition was inactive: -0.176%.

Q: CSCC[C@H](NC(=O)C1CCN(S(=O)(=O)c2ccc(C)cc2)CC1)C(=O)NCc1ccco1 was tested. Which Potency did it give?
A: The Potency was inconclusive: 26.7 µM [inhibitor, single point].

Q: With COc1ccc(-c2nc(-c3ccc(O)cc3O)cs2)cc1OC as the compound, how does the Potency read?
A: The Potency was inconclusive: 26.7 µM [inhibitor, partial curve].

Q: For CCOC1=NN(c2ncc(C(F)(F)F)cc2Cl)C(=O)C1, which Potency is on record?
A: The Potency was active: 23.8 µM.

Q: How did the max response, negative = inhibition turn out when Nc1c(C(=O)Nc2nc3ccccc3s2)sc2nc(-c3cccs3)ccc12 was run?
A: The max response, negative = inhibition was inactive: -22.7%.

Q: For O=c1cc(O)c(-c2ccc(Cl)c(Cl)c2)c(Cl)[nH]1, which Potency is on record?
A: The Potency was inconclusive: 37.7 µM [inhibitor, partial curve, poor fit].

Q: COCCn1c(SCc2nc3sc(C(=O)OC)c(C)c3c(=O)[nH]2)nc2ccccc21 was tested. Which max response, negative = inhibition did it give?
A: The max response, negative = inhibition was inactive: 0.436%.

Q: For CCOC(=O)C(=C1Nc2ccccc2N1)n1c(-c2ccco2)nc2ccccc21, which Potency is on record?
A: Its Potency is inconclusive: 23.8 µM [inhibitor, single point].

Q: How did the Potency turn out when Cc1ccc(S(=O)(=O)NCCN(CCNS(=O)(=O)c2ccc(C)cc2)S(C)(=O)=O)cc1 was run?
A: Its Potency is inconclusive: 26.7 µM [inhibitor, partial curve].

Q: Which max response, negative = inhibition does the source give for O=C(NCCCN1CCOCC1)c1cc(-c2ccco2)nc2ccccc12 here?
A: The max response, negative = inhibition was inconclusive: -36.2% [inhibitor].

Q: With O=C(CC(=O)c1ccccc1)Nc1ccc([N+](=O)[O-])cc1 as the compound, how does the max response, negative = inhibition read?
A: Its max response, negative = inhibition is inactive: -9.19%.

Q: O=C(c1ccc2ccccc2n1)N1CCN(c2ccccn2)CC1 was tested. Which Potency did it give?
A: The Potency was inconclusive: 26.7 µM [inhibitor, partial curve].

Q: Which max response, negative = inhibition does the source give for CC(C)CC(COCc1ccc(C(F)(F)F)cc1)N1CCN(C(=O)c2ccc(C(F)(F)F)cc2)CCC1=O (configuration not stated) here?
A: The max response, negative = inhibition was inactive: 2.35%.

Q: With CC(=O)Nc1ccc(N=C(C2=C(O)c3ccccc3C2=O)c2ccccc2)cc1 as the compound, how does the Potency read?
A: The Potency was inconclusive: 21.2 µM [inhibitor, partial curve].

Q: With O=C(Nc1nc(-c2ccc(Cl)cc2)cs1)c1cccnc1 as the compound, how does the Potency read?
A: The Potency was active: 11.9 µM.

Q: CN(C)CCCN1c2ccccc2Sc2ccc3ccccc3c21 was tested. Which max response, negative = inhibition did it give?
A: Its max response, negative = inhibition is inactive: -0.826%.

Q: How did the Potency turn out when Cc1ccc(S(=O)(=O)N2CCCc3cc(NC(=O)c4c(F)cccc4F)ccc32)cc1 was run?
A: Its Potency is active: 26.7 µM.

Q: How did the Potency turn out when O=C(O)c1ccc(NC(=S)Nc2ccc(S(=O)(=O)Nc3ccccn3)cc2)cc1 was run?
A: Its Potency is inconclusive: 29.9 µM [inhibitor, partial curve].

Q: For COC(=O)N/N=C/c1cc(N=Nc2ccccc2Cl)ccc1O, which Potency is on record?
A: The Potency was inconclusive: 0.67 µM [inhibitor, single point].

Q: How did the Potency turn out when Nc1ccccc1SCC(=O)Nc1ccc2c(c1)OCCO2 was run?
A: Its Potency is inconclusive: 26.7 µM [inhibitor, partial curve].

Q: For CN(C(=O)COC(=O)C1(C)CC1(Cl)Cl)c1c(N)n(Cc2ccccc2)c(=O)[nH]c1=O (configuration not stated), which max response, negative = inhibition is on record?
A: The max response, negative = inhibition was inactive: -1.05%.

Q: With CCN(CC)CCn1c(NCc2cc(OC)ccc2OC)nc2ccccc21 as the compound, how does the Potency read?
A: Its Potency is active: 26.7 µM.

Q: How did the Potency turn out when CCOC(=O)N1CCN(C(=O)CSc2ccc(C(=O)OC)cc2[N+](=O)[O-])CC1 was run?
A: Its Potency is inconclusive: 15 µM [inhibitor, partial curve].

Q: How did the Potency turn out when CC(=O)NNc1nc(-c2ccccc2)cs1 was run?
A: Its Potency is inconclusive: 23.8 µM [inhibitor, single point].
